This passage reports binding results from paper PMC7801453.

Amino acid sequences for entries named in this document (tags omitted).
UniProt O14686: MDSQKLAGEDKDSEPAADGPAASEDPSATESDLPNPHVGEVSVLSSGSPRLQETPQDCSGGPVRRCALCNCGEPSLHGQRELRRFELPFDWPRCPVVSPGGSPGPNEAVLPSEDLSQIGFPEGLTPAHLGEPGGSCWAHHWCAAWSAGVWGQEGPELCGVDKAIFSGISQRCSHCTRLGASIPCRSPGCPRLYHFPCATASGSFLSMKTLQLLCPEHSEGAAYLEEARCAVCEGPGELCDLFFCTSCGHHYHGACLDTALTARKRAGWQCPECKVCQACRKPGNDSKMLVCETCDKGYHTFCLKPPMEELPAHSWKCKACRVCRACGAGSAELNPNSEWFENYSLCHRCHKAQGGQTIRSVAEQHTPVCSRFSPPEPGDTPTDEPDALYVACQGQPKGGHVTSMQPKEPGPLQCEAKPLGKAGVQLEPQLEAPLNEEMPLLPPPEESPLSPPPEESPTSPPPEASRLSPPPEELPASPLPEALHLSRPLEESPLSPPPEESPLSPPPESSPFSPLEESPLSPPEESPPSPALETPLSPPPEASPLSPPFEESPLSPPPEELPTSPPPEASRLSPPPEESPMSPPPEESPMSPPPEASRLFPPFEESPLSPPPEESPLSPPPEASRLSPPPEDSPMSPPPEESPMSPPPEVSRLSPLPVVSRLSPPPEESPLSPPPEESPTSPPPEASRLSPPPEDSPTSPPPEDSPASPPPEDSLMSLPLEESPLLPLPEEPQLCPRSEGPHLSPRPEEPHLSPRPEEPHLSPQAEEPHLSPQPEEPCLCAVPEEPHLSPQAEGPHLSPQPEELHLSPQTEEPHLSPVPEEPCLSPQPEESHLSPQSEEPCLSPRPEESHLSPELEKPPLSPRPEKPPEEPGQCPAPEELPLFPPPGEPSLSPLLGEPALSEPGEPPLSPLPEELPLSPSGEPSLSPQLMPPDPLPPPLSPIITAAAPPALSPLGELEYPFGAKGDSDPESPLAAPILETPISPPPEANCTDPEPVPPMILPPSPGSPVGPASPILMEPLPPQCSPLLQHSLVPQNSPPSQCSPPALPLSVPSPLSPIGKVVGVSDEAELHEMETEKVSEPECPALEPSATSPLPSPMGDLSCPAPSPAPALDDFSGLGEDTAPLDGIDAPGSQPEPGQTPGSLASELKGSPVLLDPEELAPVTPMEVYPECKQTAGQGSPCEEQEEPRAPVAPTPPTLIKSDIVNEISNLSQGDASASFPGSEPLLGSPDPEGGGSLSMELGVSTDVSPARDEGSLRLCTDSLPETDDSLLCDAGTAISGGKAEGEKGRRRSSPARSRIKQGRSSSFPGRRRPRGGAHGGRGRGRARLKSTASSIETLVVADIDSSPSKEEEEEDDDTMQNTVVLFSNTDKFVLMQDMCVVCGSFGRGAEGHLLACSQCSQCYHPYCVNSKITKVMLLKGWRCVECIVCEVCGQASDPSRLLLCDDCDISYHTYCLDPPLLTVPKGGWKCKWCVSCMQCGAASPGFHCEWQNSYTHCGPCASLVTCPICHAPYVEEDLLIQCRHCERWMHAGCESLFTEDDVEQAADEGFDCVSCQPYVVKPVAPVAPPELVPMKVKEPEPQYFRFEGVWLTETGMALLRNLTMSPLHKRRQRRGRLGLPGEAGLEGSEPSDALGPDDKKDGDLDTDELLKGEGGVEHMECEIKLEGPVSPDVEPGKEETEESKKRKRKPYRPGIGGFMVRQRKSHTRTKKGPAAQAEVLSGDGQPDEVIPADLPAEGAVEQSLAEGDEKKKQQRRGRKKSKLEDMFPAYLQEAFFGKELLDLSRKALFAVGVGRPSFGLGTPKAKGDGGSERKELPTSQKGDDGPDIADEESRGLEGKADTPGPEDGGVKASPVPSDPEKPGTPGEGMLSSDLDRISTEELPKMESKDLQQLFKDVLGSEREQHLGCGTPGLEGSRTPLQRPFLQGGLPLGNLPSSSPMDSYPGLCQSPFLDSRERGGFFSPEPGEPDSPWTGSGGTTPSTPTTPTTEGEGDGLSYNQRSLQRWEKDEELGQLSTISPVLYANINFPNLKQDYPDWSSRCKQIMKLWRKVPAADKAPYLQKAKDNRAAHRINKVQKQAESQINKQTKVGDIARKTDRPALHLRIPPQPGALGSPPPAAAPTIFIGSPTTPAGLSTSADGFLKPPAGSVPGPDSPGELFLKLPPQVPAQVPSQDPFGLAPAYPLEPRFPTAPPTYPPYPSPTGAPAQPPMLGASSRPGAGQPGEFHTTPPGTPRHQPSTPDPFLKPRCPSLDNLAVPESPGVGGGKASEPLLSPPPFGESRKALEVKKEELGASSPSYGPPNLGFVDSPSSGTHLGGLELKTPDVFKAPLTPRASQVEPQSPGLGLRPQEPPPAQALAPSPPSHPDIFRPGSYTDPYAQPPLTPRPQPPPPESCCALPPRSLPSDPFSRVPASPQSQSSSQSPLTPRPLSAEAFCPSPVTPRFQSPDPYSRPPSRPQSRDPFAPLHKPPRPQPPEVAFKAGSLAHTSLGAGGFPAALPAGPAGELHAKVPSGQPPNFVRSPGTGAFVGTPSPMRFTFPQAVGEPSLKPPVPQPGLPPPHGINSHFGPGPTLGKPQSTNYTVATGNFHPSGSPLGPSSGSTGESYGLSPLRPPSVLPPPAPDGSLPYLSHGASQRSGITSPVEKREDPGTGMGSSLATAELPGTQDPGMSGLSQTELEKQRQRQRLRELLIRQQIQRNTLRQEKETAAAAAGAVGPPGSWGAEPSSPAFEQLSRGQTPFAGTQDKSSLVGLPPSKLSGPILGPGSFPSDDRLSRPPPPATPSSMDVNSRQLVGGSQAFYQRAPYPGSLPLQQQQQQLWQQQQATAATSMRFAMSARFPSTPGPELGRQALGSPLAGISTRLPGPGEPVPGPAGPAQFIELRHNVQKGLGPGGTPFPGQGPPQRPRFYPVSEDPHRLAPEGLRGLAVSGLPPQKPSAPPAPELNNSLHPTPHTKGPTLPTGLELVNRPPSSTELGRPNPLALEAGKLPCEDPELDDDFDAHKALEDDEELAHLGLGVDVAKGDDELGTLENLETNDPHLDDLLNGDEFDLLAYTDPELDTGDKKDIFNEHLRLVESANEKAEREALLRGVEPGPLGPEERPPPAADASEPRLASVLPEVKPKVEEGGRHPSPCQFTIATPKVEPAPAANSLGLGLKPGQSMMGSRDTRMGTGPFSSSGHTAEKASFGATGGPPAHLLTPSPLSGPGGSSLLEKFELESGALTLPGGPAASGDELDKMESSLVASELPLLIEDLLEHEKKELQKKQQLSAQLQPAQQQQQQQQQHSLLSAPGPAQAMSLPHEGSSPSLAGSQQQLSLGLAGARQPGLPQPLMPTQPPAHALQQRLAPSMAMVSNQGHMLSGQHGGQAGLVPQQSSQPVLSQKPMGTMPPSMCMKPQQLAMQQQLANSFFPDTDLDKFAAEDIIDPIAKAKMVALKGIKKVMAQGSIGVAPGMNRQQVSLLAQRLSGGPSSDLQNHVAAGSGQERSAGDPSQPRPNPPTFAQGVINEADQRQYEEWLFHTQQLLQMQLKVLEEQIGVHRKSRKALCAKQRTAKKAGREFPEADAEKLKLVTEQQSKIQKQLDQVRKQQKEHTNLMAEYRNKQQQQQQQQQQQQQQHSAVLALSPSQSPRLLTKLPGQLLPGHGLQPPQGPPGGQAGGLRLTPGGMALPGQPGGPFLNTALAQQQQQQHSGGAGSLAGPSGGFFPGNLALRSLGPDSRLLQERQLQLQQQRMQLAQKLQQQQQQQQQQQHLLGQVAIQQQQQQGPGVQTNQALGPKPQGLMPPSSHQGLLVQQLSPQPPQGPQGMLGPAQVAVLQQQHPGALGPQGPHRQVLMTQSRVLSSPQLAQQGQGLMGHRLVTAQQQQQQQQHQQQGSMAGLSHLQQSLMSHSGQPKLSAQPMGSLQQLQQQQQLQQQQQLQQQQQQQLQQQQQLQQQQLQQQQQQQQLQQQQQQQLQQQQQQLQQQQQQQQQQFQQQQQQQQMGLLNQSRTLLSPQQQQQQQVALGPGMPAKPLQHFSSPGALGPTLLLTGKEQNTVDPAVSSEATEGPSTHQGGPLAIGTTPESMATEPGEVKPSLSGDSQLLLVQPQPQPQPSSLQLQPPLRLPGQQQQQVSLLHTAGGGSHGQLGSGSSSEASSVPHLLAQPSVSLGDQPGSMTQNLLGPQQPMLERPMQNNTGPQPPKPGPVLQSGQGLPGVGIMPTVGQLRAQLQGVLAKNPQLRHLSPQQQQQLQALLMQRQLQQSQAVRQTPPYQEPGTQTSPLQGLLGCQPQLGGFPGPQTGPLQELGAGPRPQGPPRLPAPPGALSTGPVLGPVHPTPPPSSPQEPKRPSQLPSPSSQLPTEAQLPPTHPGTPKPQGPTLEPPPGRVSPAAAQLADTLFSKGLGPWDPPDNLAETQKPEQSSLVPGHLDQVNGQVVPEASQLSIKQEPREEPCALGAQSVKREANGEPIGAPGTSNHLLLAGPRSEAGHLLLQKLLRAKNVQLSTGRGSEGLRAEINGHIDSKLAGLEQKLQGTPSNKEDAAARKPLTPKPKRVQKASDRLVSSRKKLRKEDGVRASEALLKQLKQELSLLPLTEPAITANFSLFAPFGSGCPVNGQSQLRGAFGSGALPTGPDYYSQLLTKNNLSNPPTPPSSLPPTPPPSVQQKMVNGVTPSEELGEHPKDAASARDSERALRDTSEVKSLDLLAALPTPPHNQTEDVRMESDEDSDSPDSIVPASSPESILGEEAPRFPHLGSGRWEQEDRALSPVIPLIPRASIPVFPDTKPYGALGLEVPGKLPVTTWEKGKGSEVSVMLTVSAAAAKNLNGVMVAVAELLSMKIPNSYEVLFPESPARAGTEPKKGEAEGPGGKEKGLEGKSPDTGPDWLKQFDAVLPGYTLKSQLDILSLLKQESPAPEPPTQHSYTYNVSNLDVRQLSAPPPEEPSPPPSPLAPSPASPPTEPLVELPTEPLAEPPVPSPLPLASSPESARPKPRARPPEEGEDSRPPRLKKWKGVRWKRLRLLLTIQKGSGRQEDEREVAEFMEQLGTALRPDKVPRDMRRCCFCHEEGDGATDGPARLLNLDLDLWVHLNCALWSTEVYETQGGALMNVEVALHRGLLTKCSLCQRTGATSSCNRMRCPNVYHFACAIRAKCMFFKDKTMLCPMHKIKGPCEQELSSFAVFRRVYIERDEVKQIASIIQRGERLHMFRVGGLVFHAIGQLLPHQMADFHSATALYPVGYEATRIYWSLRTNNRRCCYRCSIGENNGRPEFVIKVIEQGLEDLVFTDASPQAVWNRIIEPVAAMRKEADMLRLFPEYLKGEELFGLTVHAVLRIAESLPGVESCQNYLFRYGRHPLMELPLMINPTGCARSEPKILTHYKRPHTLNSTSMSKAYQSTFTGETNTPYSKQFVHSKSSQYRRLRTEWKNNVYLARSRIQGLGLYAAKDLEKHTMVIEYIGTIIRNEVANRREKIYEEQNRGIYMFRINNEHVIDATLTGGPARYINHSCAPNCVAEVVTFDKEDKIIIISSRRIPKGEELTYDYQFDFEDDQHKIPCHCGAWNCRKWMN

Results are given in words; binding and its absence hold for the method and conditions named. Binding seen in cells or lysates may run through a third protein. Some binding calls cover weakened binding; strength is not graded here. Sequences can lack the tags named with a protein.

For this test, the target named is Mll4 (histone H3-lysine 4-methyltransferase) (human (endogenous in HEK293)) (UniProt O14686). The test can be described thus: co-IP; HEK293 cells transfected with Flag-Nrf1, lysed in RIPA buffer; immunoprecipitation with Mll4 antibody overnight, Protein A/G agarose beads; blot with antibody against Flag-tag.

B1: Flag-Nrf1 (nuclear respiratory factor 1) (protein, UniProt Q9WU00 1-503)
chain: MEEHGVTQTEHMATIEAHAVAQQVQQVHVATYTEHSMLSADEDSPSSPEDTSYDDSDILNSTAADEVTAHLAAAGPVGMAAAAAVATGKKRKRPHVFESNPSIRKRQQTRLLRKLRATLDEYTTRVGQQAIVLCISPSKPNPVFKVFGAAPLENVVRKYKSMILEDLESALAEHAPAPQEVNSELPPLTIDGIPVSVDKMTQAQLRAFIPEMLKYSTGRGKPGWGKESCKPIWWPEDIPWANVRSDVRTEEQKQRVSWTQALRTIVKNCYKQHGREDLLYAFEDQQTQTQATTTHSIAHLVPSQTVVQTFSNPDGTVSLIQVGTGATVATLADASELPTTVTVAQVNYSAVADGEVEQNWATLQGGEMTIQTTQASEATQAVASLAEAAVAASQEMQQGATVTMALNSEAAAHAVATLAEATLQGGGQIVLSGETAAAVGALTGVQDANGLVQIPVSMYQTVVTSLAQGNGPVQVAMAPVTTRISDSAVTMDGQAVEVVTLEQ
Turning to B1, the binding entry is listed as “binds”.
